According to patent publication US20250041309A1 (ZHENAO JINYINHUA PHARMACEUTICAL, priority 2021, published 2025):
For some assays here: At least one structure is not confirmed: it was looked up by name or label, or the drawing left a doubt. Some results were stated once for a whole list of compounds, not compound by compound.

Legend:
[1] = Saturation solubility of Aildenafil salts in water at room temperature; type: physicochemical; conditions: versus gluconate
MCAO rats = test: Neurological function (behavioral) score in MCAO rats, oral administration (Example 23); type: in vivo, SD rats; conditions: gavage 8 mg/kg twice a day; after 3, 7 and 14 days administration
Protocol: Administration route: gavage administration;
Dosage: 8 mg/kg body weight, twice a day;
Administration time: gavage administration twice a day in the morning and evening (administered immediately after modeling).
A rat model of middle cerebral artery ischemia/reperfusion (MCAO/R) was created using suture-occluded method.
After 2 hours of embolization, then reperfusion, according to the scoring criteria in the attached table, the degree of neurological damage in the animals was scored using a blind method. Those with significant neurological deficits (>8 points) were considered successful in modeling.
The successfully modeled rats were randomly divided into 4 groups based on their scores, with an average of 20 rats in each group.
Neurological function score: evaluation was conducted before treatment, 3 days, 7 days, and 14 days after treatment.

| Structure (SMILES) | solubility in room temperature water, times higher than that of Aildenafil gluconate [1] | behavioral scores compared with the model control group (MCAO rats) |
| --- | --- | --- |
| CCCc1nn(C)c2c(=O)[nH]c(-c3cc(S(=O)(=O)N4C[C@@H](C)N[C@@H](C)C4)ccc3OCC)nc12 [Aildenafil phosphate] | more than 200 times | – |
| CN1CC(=O)N2[C@H](c3ccc4c(c3)OCO4)c3[nH]c4ccccc4c3C[C@@H]2C1=O [Tadalafil] | – | trend of improvement |
